# Source: PubChem BioAssay AID493014 (National Center for Advancing Translational Sciences (NCATS), 2011)
# This is one part of the list. Further columns of the screen follow, without active or inactive calls. The list favours compounds with an active or inconclusive main result. Words in brackets tell the shape of the fitted curve; partial curves, single points and poor fits give uncertain potencies.
# Assay: qHTS Assay to Find Inhibitors of Chronic Active B-Cell Receptor Signaling
# Conditions: ABC-DLBCL IkBa-CBG/CBR reporter, luminescence ratio (green luciferase fused to IkBa over red control in TMD8 lymphoma cells), 4 h
# Summary of the method: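 Cell line TMD8 (human ABC DLBCL), stably expressing tet-inducible CBG68-IkBa fusion and CBR; IMDM/0.5% FBS; cpd up to 46 uM; dox induction, 4 h, 37C/5% CO2; dual luminescence; green/red ratio; MG132 control.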
# [1] = measured here: CBR red luminescence, cell number
# [2] = measured here: IkBa-CBG green luminescence
SMILES,AC50 [1],AC50 [2]
COc1cccc(N2CCN(S(=O)(=O)c3ccc(-c4coc(C)n4)cc3)CC2)c1,"0.708 µM [rising, full curve, poor fit]",
CCSc1nc2ccccc2n1CCC(=O)O,"6.51 µM [rising, full curve, poor fit]",
Cc1cccn2c(NCc3ccc4c(c3)OCO4)c(-c3ccc(O)cc3)nc12,"12.6 µM [falling, single point]",
O=C1COc2ccc(OCc3ccc(F)cc3)cc21,"3.55 µM [rising, partial curve]",
CCOC(=O)c1ccc(N/C=C\C(=O)c2cccc(OC)c2)cc1,"0.116 µM [falling, full curve]",
C=CCn1c(O)c(N=NC(=S)Nc2ccccc2F)c2cc(S(=O)(=O)N3CCOCC3)ccc21,"35.5 µM [rising, single point]","3.55 µM [falling, full curve]"
O=C(NC(=S)Nc1sc2c(c1C(=O)O)CCCC2)c1ccccc1,"14.1 µM [falling, partial curve, poor fit]",
Cn1c(=O)c2nc(-c3ccc(Cl)cc3Cl)oc2c2ccccc21,"1.64 µM [rising, single point]",
Cc1ccc2c(c1)c1ncnc(N3CCOCC3)c1n2C,"1.12 µM [rising, partial curve, poor fit]",
CCOC(=O)C1C(=O)NC(N2CCN(c3ccccc3)CC2)=NC1c1ccco1 (stereo not given),"2.06 µM [rising, partial curve, poor fit]",
COc1ccc(NC(=O)c2ccc(COCC(F)(F)C(F)F)cc2)cc1OC,"4.61 µM [rising, single point]",
CCCc1cc(N2CCC(C(N)=O)CC2)nc(-c2ccccc2)n1,"35.5 µM [falling, single point]",
COc1cccc(N/C=C/C(=O)c2ccc(C)cc2)c1,"35.5 µM [falling, single point]",
O=C(N/N=C/c1cc(Br)c(O)c(Br)c1O)c1cccnc1,"11.2 µM [falling, partial curve, poor fit]",
COc1ccc(C2=Nn3c(nnc3-c3ccccc3OC)SC2)cc1OC1CCCC1,"5.8 µM [falling, single point]","2.91 µM [falling, full curve]"
CC1=CCC(COC(=O)Nc2ccccc2)CC1 (stereo not given),"6.31 µM [falling, full curve]",
CCCCN(C(=O)CSc1nnc(-c2ccc(Cl)cc2)o1)c1c(N)n(CC(C)C)c(=O)[nH]c1=O,"23.1 µM [rising, single point]",
CC(C)Nc1nc(-c2cccnc2)nc(-c2ccccc2)c1C#N,"0.251 µM [rising, full curve, poor fit]",
